Experimental data reported in the supplement of paper PMC12819154, “High-throughput peptide-centric local stability assay extends protein–ligand identification to membrane proteins, tissues and bacteria” (Nature Structural & Molecular Biology, 2025).
The list shows a part of the results. Most entries show no effect beyond the scatter of the controls.

The chains behind the UniProt entries cited, without tags or fusion partners. Where a name states a change or a piece, a line headed by the entry shows the natural chain unless it says otherwise.
UniProt Q6NYC8: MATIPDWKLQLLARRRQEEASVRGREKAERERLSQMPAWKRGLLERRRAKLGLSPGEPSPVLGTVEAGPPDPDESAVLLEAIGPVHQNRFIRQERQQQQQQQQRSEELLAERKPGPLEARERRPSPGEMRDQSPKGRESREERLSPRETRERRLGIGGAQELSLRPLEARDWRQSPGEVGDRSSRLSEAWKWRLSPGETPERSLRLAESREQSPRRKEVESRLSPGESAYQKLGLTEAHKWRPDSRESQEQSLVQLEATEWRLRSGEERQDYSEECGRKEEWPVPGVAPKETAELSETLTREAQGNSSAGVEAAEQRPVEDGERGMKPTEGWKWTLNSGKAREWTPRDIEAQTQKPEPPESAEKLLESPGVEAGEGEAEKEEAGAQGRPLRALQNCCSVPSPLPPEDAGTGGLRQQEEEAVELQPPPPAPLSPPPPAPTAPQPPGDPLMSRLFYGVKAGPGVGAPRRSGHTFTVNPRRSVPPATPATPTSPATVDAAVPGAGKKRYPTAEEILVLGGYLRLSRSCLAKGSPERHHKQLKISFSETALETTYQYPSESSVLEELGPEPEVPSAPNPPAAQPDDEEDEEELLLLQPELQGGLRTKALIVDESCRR
UniProt Q6TDU7: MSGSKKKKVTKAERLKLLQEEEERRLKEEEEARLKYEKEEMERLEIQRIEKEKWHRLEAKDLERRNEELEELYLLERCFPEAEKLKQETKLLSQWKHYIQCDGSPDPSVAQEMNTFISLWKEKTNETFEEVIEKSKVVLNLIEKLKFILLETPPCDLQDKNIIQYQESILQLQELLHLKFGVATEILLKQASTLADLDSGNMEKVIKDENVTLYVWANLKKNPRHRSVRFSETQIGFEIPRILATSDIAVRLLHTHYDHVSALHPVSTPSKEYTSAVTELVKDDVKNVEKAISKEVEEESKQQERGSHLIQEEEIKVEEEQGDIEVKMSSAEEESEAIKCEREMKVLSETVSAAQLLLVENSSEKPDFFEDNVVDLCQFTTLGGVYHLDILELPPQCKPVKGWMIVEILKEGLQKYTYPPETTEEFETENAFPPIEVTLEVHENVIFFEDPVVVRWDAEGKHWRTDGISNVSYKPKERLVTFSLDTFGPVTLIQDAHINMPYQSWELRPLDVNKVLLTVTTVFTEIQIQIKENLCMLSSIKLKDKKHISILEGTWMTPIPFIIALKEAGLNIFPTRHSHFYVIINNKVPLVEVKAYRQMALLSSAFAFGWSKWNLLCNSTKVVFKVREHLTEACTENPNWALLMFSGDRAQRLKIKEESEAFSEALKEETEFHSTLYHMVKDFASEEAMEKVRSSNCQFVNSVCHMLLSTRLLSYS
UniProt Q5W0B1: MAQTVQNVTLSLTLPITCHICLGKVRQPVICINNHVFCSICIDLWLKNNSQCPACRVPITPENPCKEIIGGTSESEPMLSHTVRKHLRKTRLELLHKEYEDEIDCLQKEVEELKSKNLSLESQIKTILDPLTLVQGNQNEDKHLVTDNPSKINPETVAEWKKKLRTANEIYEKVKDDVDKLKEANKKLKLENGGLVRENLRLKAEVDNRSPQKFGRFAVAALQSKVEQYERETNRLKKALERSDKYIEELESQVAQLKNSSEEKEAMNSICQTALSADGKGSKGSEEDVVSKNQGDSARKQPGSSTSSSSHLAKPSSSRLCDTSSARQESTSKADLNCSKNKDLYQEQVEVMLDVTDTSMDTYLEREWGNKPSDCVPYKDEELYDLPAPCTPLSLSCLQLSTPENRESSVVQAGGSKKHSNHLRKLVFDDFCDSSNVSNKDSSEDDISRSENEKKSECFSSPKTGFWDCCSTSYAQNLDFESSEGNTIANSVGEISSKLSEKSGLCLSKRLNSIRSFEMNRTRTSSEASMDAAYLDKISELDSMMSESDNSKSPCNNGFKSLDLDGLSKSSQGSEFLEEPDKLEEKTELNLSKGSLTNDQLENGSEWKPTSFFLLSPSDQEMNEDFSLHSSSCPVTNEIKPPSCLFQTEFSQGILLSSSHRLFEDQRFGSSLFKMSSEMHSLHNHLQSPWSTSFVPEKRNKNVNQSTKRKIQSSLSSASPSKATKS
UniProt Q6NWY9: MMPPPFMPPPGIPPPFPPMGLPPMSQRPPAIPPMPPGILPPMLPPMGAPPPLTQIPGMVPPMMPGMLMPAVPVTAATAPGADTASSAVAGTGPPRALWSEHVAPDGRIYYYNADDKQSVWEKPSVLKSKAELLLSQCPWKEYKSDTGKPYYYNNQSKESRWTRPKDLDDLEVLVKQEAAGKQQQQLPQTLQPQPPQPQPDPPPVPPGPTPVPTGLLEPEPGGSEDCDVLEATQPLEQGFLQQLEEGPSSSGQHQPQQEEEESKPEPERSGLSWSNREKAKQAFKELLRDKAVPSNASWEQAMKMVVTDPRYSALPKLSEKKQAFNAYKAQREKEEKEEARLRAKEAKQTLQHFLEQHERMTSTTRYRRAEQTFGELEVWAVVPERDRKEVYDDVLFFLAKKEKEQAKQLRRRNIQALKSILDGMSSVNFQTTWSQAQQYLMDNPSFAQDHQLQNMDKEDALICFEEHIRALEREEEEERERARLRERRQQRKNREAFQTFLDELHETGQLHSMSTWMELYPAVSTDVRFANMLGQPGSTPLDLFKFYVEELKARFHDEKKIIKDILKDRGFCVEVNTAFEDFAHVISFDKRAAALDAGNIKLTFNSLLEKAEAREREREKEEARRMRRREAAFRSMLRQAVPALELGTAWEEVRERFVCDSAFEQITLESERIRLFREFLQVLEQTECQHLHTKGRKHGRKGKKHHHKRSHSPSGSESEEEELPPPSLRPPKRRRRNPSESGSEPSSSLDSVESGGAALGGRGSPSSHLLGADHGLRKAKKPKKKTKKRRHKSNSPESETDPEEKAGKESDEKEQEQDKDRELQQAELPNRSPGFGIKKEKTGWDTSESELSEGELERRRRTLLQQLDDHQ
UniProt Q6P1Q9: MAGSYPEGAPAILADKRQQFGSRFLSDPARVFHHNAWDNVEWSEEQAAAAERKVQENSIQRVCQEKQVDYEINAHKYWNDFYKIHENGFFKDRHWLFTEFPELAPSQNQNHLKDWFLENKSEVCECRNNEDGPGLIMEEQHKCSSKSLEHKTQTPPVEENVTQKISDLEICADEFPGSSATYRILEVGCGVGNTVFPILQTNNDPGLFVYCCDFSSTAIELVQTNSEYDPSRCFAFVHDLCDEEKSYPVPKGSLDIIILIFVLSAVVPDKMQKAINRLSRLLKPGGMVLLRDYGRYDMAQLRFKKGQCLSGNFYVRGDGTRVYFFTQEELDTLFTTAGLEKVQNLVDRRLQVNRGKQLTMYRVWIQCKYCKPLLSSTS
UniProt Q6P582, whole entry: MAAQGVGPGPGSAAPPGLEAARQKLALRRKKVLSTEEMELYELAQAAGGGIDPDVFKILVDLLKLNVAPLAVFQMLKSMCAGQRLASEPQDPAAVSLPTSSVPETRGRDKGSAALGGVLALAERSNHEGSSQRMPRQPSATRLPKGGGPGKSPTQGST
UniProt Q6P4F2: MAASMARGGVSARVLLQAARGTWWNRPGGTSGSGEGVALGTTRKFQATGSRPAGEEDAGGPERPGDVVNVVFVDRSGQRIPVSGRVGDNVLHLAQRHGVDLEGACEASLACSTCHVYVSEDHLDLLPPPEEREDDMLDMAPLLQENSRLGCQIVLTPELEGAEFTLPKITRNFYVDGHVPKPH
UniProt Q6PGN9: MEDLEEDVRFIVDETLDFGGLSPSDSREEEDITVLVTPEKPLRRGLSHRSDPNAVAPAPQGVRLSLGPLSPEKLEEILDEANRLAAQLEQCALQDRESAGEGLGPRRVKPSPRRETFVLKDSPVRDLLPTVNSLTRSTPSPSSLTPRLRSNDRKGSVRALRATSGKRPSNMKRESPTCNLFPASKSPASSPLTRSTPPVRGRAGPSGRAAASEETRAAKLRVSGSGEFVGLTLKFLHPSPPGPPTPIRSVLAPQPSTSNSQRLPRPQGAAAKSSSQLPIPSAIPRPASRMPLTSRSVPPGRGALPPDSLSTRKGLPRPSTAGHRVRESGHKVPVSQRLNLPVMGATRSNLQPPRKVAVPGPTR
UniProt Q6RFH5: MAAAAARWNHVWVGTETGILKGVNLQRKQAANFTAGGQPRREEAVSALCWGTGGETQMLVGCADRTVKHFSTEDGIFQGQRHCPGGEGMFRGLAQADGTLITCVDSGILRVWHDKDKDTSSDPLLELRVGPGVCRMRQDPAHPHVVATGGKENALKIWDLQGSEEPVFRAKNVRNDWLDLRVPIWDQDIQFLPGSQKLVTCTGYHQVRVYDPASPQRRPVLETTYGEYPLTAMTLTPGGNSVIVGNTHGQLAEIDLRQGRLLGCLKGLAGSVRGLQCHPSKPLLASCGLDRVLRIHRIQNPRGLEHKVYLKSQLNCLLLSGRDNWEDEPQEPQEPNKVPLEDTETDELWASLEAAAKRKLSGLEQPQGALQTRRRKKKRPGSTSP
UniProt Q5VZ66: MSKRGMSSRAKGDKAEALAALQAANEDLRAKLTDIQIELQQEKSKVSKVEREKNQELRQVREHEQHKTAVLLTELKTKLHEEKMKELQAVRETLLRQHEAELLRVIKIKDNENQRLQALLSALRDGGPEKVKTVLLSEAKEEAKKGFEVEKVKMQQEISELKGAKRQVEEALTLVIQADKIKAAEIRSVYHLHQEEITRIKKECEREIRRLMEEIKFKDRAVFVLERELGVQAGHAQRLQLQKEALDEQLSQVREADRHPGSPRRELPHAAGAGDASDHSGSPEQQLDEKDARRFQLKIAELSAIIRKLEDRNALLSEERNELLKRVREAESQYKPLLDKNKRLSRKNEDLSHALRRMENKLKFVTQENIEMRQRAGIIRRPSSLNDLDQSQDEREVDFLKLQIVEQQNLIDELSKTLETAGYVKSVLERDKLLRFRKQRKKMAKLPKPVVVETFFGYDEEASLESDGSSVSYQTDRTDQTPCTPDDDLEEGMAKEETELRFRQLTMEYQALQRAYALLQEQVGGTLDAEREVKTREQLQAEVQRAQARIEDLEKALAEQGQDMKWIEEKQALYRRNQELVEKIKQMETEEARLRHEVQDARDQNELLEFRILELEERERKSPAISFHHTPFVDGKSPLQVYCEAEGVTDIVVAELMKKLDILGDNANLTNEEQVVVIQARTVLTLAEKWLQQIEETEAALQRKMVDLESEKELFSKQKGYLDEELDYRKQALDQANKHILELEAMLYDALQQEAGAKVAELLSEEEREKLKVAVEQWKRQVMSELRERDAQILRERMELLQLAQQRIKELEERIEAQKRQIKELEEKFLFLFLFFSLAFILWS
UniProt Q6P4R8, whole entry: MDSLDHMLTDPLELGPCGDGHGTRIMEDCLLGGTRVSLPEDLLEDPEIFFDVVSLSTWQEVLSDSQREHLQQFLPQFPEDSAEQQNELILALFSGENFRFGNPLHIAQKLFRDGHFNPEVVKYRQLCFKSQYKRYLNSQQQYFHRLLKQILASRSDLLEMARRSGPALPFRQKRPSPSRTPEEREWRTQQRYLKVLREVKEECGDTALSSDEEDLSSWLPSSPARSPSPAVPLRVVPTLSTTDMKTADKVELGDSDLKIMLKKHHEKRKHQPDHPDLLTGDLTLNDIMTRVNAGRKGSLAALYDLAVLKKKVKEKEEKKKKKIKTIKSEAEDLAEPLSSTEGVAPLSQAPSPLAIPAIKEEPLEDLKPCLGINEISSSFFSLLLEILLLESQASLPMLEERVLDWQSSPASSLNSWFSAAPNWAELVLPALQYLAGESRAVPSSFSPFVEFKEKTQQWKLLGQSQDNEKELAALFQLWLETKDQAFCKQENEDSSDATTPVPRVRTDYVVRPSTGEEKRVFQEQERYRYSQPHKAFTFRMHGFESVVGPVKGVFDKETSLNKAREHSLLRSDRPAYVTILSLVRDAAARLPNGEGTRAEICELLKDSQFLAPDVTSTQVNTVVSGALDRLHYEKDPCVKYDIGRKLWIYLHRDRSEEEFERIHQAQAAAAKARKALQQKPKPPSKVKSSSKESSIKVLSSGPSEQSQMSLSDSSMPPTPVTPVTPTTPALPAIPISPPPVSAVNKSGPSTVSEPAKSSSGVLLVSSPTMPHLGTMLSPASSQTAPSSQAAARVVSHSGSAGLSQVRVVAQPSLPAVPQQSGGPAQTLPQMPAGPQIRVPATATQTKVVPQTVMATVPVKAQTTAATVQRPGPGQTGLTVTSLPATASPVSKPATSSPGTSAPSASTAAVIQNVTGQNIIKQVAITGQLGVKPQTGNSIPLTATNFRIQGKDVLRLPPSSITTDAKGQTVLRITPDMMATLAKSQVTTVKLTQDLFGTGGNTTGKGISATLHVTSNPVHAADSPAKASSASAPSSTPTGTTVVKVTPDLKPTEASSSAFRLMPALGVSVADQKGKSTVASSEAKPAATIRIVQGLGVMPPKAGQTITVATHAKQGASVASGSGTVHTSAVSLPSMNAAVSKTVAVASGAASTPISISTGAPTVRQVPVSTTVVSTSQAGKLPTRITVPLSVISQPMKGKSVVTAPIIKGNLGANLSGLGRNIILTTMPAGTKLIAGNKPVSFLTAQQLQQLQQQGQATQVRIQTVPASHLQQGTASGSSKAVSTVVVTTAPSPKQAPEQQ

These targets were tested with CN[C@@H]1C[C@H]2O[C@@](C)([C@@H]1OC)n1c3ccccc3c3c4c(c5c6ccccc6n2c5c31)C(=O)NC4 [staurosporine] (assay: log2 fold change of tryptic peptide abundance, ligand vs vehicle (limited proteolysis) (log2 ratio); higher = more trypsin-susceptible (destabilized)). Details: ligand concentration: 20 uM; sample: K562 cleared lysate; digestion: 4 min, 22 C (HT-PELSA RT4min, Orbitrap Astral).
For “UniProt Q6NYC8 (peptide sequence: SGHTFTVNPR, peptide start residue: 468)”, the log2 fold change was 0.219.
“UniProt Q6SJ96 (peptide sequence: IVLLIFVSGK, peptide start residue: 300)” showed a log2 fold change of -0.0792.
For “FAM91A1 (peptide sequence: LSDASDER, peptide start residue: 670) (UniProt Q658Y4)”, the log2 fold change was -0.362.
“LARP1 (peptide sequence: LEDFRVDPPMGEEGNHKR, peptide start residue: 1021) (UniProt Q6PKG0)” gave a log2 fold change of -0.343.
In the case of “CASC1 (peptide sequence: LLQEEEER, peptide start residue: 377) (UniProt Q6TDU7)”, the log2 fold change is reported as -0.0315.
Target “RAB11FIP1 (peptide sequence: HRLHPVKPMNAMATK, peptide start residue: 1174) (UniProt Q6WKZ4)” has a log2 fold change of 0.327.
“UniProt Q6ZMV8 (peptide sequence: IHTGEKPYECEECGK, peptide start residue: 335)” gave a log2 fold change of -0.369.
“ZYG11A (peptide sequence: ILVDVPFDRFDAAK, peptide start residue: 456) (UniProt Q6WRX3)” was tested, and the log2 fold change was -0.419.
Target “FAM160B1 (peptide sequence: GVPNVISEDTLK, peptide start residue: 184) (UniProt Q5W0V3)” has a log2 fold change of 0.109.
Work on “ACAD10 (peptide sequence: AEITAEGFLR, peptide start residue: 94) (UniProt Q6JQN1)” yielded a log2 fold change of 0.611.
In the case of “PDXDC1 (peptide sequence: LPGQKPFK, peptide start residue: 701) (UniProt Q6P996)”, the log2 fold change is reported as 0.495.
“UniProt Q5W0B1 (peptide sequence: KIQSSLSSASPSK, peptide start residue: 710)” showed a log2 fold change of 1.67.
With “PRPF40B (peptide sequence: DLDDLEVLVK, peptide start residue: 166) (UniProt Q6NWY9)” the log2 fold change was -0.321.
In the case of “METTL2B (peptide sequence: TQTPPVEENVTQK, peptide start residue: 152) (UniProt Q6P1Q9)”, the log2 fold change is reported as -0.348.
“TAF2 (peptide sequence: TLDNLNPDVR, peptide start residue: 818) (UniProt Q6P1X5)” gave a log2 fold change of 0.357.
With “WDR59 (peptide sequence: LLDPANTQQFDDFKK, peptide start residue: 850) (UniProt Q6PJI9)” the log2 fold change was 0.192.
Work on “UniProt Q6IPT4 (peptide sequence: FALPGNSQLGLR, peptide start residue: 97)” yielded a log2 fold change of 0.0651.
“ATF7IP (peptide sequence: SEDMDNVQSK, peptide start residue: 559) (UniProt Q6VMQ6)” showed a log2 fold change of 0.572.
For “SIGIRR (peptide sequence: SSEVDVSDLGSR, peptide start residue: 382) (UniProt Q6IA17)”, the log2 fold change was -0.0206.
In the case of “UniProt Q6P582 (peptide sequence: QPSATRLPK, peptide start residue: 137)”, the log2 fold change is reported as 0.461.
Work on “FDX2 (peptide sequence: NFYVDGHVPKPH, peptide start residue: 175) (UniProt Q6P4F2)” yielded a log2 fold change of 0.00818.
“PSRC1 (peptide sequence: STPSPSSLTPR, peptide start residue: 137) (UniProt Q6PGN9)” gave a log2 fold change of 0.142.
Work on “ANKRD54 (peptide sequence: QIIHMLR, peptide start residue: 240) (UniProt Q6NXT1)” yielded a log2 fold change of 0.232.
In the case of “FBXW9 (peptide sequence: VHVPTDPPR, peptide start residue: 413) (UniProt Q5XUX1)”, the log2 fold change is reported as -0.726.
“WDR74 (peptide sequence: QDPAHPHVVATGGKENALK, peptide start residue: 138) (UniProt Q6RFH5)” showed a log2 fold change of 0.489.
“HIBCH (peptide sequence: LSQACMR, peptide start residue: 332) (UniProt Q6NVY1)” was tested, and the log2 fold change was 0.597.
For “UniProt Q63HK3 (peptide sequence: TFLDILR, peptide start residue: 507)”, the log2 fold change was -0.17.
With “UniProt Q659A1 (peptide sequence: NPVSMETK, peptide start residue: 953)” the log2 fold change was -0.45.
With “UniProt Q6DD87 (peptide sequence: GFGHGAGLLAHQR, peptide start residue: 288)” the log2 fold change was 1.38.
“CDCA2 (peptide sequence: SSLNGKGESSLTALER, peptide start residue: 999) (UniProt Q69YH5)” was tested, and the log2 fold change was 0.577.
“UniProt Q5VZ66 (peptide sequence: EQLQAEVQR, peptide start residue: 537)” was tested, and the log2 fold change was 0.368.
In the case of “UniProt Q6ZMW2 (peptide sequence: AALVTSNSTHPK, peptide start residue: 228)”, the log2 fold change is reported as 0.273.
“OTUD7B (peptide sequence: NMGGLMHSK, peptide start residue: 520) (UniProt Q6GQQ9)” was tested, and the log2 fold change was 1.52.
Target “NFRKB (peptide sequence: IVQGLGVMPPK, peptide start residue: 1090) (UniProt Q6P4R8)” has a log2 fold change of 0.342.
With “TRIM65 (peptide sequence: TEGRCVCSVCTVR, peptide start residue: 108) (UniProt Q6PJ69)” the log2 fold change was 0.609.
Work on “SASS6 (peptide sequence: VAVLEQEIKDKDQLVLR, peptide start residue: 324) (UniProt Q6UVJ0)” yielded a log2 fold change of -0.436.
Work on “EDC4 (peptide sequence: LTAVEGSMKENISK, peptide start residue: 1074) (UniProt Q6P2E9)” yielded a log2 fold change of -0.198.
